Assay results reported in patent US4177287A, “Pharmaceutical compositions of N1 -acyl-N2 -phenyldiaminopropanols and process for their preparation” (Kali-Chemie Pharma GmbH, priority 1977, dated 1979).
Where a name gives a salt, the structure may show the parent alone.

Test: in vivo
Settings: mouse, po, single application, 7-day, unfed white NMRI-mice, read-out: Toxicity LD50 p.o.
Description: The acute 7-day-toxicity is determined after a single application per os in white NMRI-mice which had not been fed. The calculation of the LD50 is carried out by probitanalysis by means of electronic data processing (see L. Cavalli-Sforza, Gustav Fischer-Verlag, Stuttgart (1964), Grundbegriffe der Biometrie, pp. 153).

CN1[C@@H]2CC[C@H]1C[C@@H](OC(=O)C(CO)c1ccccc1)C2 (stereo partly shown) [A, atropine sulfate, reference compound]
LD50 at 168 h: 721 mg/kg
